Measurements reported in PubChem BioAssay AID1259308 (NCATS, 2017)
Test: 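Candidate targets for better recombinant protein yield in mammalian cells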 (primary screen). Cell system: human HEK293 embryonic kidney cells stably expressing firefly luciferase (HEK-CMV-Luc2-Hygro). Reagents: single siRNA against human genes, 0.8 pmol siRNA per well. Time to read-out: 72 h. Read-out: 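Luciferase light (ONE-Glo) measured on one replicate plate set and viability (CellTiter-Glo) on the other, scaled to a negative control siRNA, with robust z-scores and luciferase per cell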. Direction: total luciferase, z-score and total luciferase, % of control: higher = more reporter protein produced; luciferase per cell, z-score: higher = more reporter output per viable cell; viable cells, % of control: higher = more viable cells. Hit rule: 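An siRNA counts as active if its total luciferase robust z-score exceeds 3; genes with two or more such siRNAs out of three were retested with fresh siRNAs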. Meaning of the calls: active = raised luciferase; inactive = no rise.
The whole screen tested about 59,000 reagents; this is a part drawn at random. Over the whole deposit, about 1,510 (2.6%) were called active. 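Calls use total luciferase alone and ignore viability, so some active siRNAs may act by altering cell number.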 Entries without a mark were called inactive. The numbers tell different reagents against one gene apart.

Target gene	reagent	total luciferase, z-score	total luciferase, % of control	luciferase per cell, z-score	viable cells, % of control
ARHGAP39	1	1.11	104	0.697	96.7
ARHGAP39	2	0.181	85.5	0.257	89.3
ARHGAP39	3	-1.32	55.7	-1.4	89.9
ZNF189	1	-0.602	69.9	-0.494	89
ZNF189	2	-1.03	61.4	-0.763	83.9
ZNF189	3	0.0512	82.9	0.24	87
RAB6A	1	0.609	94	-0.032	106
RAB6A	2	-0.14	79.1	-0.759	108
RAB6A	3	-1.34	55.3	-1.75	98.1
RPS24	1	-1.39	54.3	0.442	54
RPS24	2	-1.92	43.7	-0.176	51.2
RPS24	3	-2.14	39.2	-1.55	66
PTGER2	1	0.367	89.2	-0.17	104
PTGER2	2	1.32	108	0.865	96.2
PTGER2	3	1	102	1.27	81.5
LDHD	1	-0.235	77.2	-0.13	89.3
LDHD	2	-0.225	77.4	0.0591	85.2
LDHD	3	-0.643	69.1	-0.0451	78.1
IFNL2	1	-0.066	80.6	0.197	85.5
IFNL2	2	-0.754	66.9	-0.534	86
IFNL2	3	1.37	109	0.739	100
CHRNA5	1	0.964	101	0.829	90.8
CHRNA5	2	-1.22	57.6	-1.41	93.3
CHRNA5	3	0.829	98.4	-0.391	122
KCNK15	1	-1.05	61	-1.41	98.7
KCNK15	2	-1.43	53.4	-0.835	74.4
KCNK15	3	-1.24	57.2	-1.89	105
RNF19A	1	-1.03	61.3	-1.17	93.2
RNF19A	2	0.286	87.6	-0.183	103
RNF19A	3	0.104	83.9	-0.407	104
ADD2	1	-1.33	55.5	-0.257	66.4
ADD2	2	-2.21	37.9	-2.23	76.3
ADD2	3	-0.702	67.9	-1.46	111
PRR23E	1	0.556	92.9	0.0829	102
PRR23E	2	-0.498	72	-0.628	94.9
PRR23E	3	0.161	85.1	-0.55	110
SLC22A6	1	-0.716	67.7	-0.87	95.1
SLC22A6	2	-1.62	49.6	-0.806	68.6
SLC22A6	3	1.64	114	2.2	71.7
LVRN	1	-0.834	65.3	-0.644	86.4
LVRN	2	0.171	85.3	-0.45	107
LVRN	3	-1.79	46.3	-2	87.6
NMS	1	0.428	90.4	0.806	81.7
NMS	2	2.19	125	2.04	81.9
NMS	3	0.0939	83.8	0.697	77.9
C5AR2	1	2.97	141	1.44	108
C5AR2	2	0.228	86.4	-0.762	118
C5AR2	3	0.913	100	0.147	108
SRRM1	1	0.867	99.1	1.77	69.5
SRRM1	2	-0.0987	79.9	0.557	77.1
SRRM1	3	-2.12	39.8	-2.83	93.6
PPP1R9A	1	0.731	96.4	0.335	98.7
PPP1R9A	2	-1.17	58.5	-1.46	96.1
PPP1R9A	3	-0.143	79	-0.057	89.7
TRPV2	1	1.08	103	1.16	85.2
TRPV2	2	-0.445	73	-0.726	98.8
TRPV2	3	0.184	85.5	-0.877	120

As entered above.
For “viable cells, % of control”, LDHD #3 shows 78.1
Value for RPS24 #3 in “luciferase per cell, z-score”: -1.55
Value for PRR23E #3 under “total luciferase, z-score”: 0.161
KCNK15 #2, luciferase per cell, z-score: -0.835
